The assay concerns the target HPV42-E7, BirA*Flag-tagged BioID bait (human papillomavirus 42). Put plainly: proximity labelling; BioID: Flp-In T-REx HEK293 stably expressing N- or C-terminally BirA*Flag-tagged viral bait, 24 h with 1 ug/mL tetracycline and 50 umol/L biotin; streptavidin resin, tryptic digest, LC-MS/MS; compared with BirA* alone.

No constants are given. Whether binding was seen depends on the method and setting. In cells and extracts the contact can be indirect. These calls come from enrichment with a bait or labelling near it, and not all partners need be listed.

B1: RBL1, endogenous in HEK293 (protein, UniProt P28749 1-1068)
chain: MFEDKPHAEGAAVVAAAGEALQALCQELNLDEGSAAEALDDFTAIRGNYSLEGEVTHWLACSLYVACRKSIIPTVGKGIMEGNCVSLTRILRSAKLSLIQFFSKMKKWMDMSNLPQEFRERIERLERNFEVSTVIFKKYEPIFLDIFQNPYEEPPKLPRSRKQRRIPCSVKDLFNFCWTLFVYTKGNFRMIGDDLVNSYHLLLCCLDLIFANAIMCPNRQDLLNPSFKGLPSDFHTADFTASEEPPCIIAVLCELHDGLLVEAKGIKEHYFKPYISKLFDRKILKGECLLDLSSFTDNSKAVNKEYEEYVLTVGDFDERIFLGADAEEEIGTPRKFTRDTPLGKLTAQANVEYNLQQHFEKKRSFAPSTPLTGRRYLREKEAVITPVASATQSVSRLQSIVAGLKNAPSDQLINIFESCVRNPVENIMKILKGIGETFCQHYTQSTDEQPGSHIDFAVNRLKLAEILYYKILETVMVQETRRLHGMDMSVLLEQDIFHRSLMACCLEIVLFAYSSPRTFPWIIEVLNLQPFYFYKVIEVVIRSEEGLSRDMVKHLNSIEEQILESLAWSHDSALWEALQVSANKVPTCEEVIFPNNFETGNGGNVQGHLPLMPMSPLMHPRVKEVRTDSGSLRRDMQPLSPISVHERYSSPTAGSAKRRLFGEDPPKEMLMDKIITEGTKLKIAPSSSITAENVSILPGQTLLTMATAPVTGTTGHKVTIPLHGVANDAGEITLIPLSMNTNQESKVKSPVSLTAHSLIGASPKQTNLTKAQEVHSTGINRPKRTGSLALFYRKVYHLASVRLRDLCLKLDVSNELRRKIWTCFEFTLVHCPDLMKDRHLDQLLLCAFYIMAKVTKEERTFQEIMKSYRNQPQANSHVYRSVLLKSIPREVVAYNKNINDDFEMIDCDLEDATKTPDCSSGPVKEERGDLIKFYNTIYVGRVKSFALKYDLANQDHMMDAPPLSPFPHIKQQPGSPRRISQQHSIYISPHKNGSGLTPRSALLYKFNGSPSKSLKDINNMIRQGEQRTKKRVIAIDSDAESPAKRVCQENDDVLLKRLQDVVSERANH
For the molecule B1, the binding entry is recorded as “binds”.

B2: PTPN14 (tumor suppressor), endogenous in HEK293 (protein, UniProt Q15678 1-1187)
chain: MPFGLKLRRTRRYNVLSKNCFVTRIRLLDSNVIECTLSVESTGQECLEAVAQRLELRETHYFGLWFLSKSQQARWVELEKPLKKHLDKFANEPLLFFGVMFYVPNVSWLQQEATRYQYYLQVKKDVLEGRLRCTLDQVIRLAGLAVQADFGDYNQFDSQDFLREYVLFPMDLALEEAVLEELTQKVAQEHKAHSGILPAEAELMYINEVERLDGFGQEIFPVKDNHGNCVHLGIFFMGIFVRNRIGRQAVIYRWNDMGNITHNKSTILVELINKEETALFHTDDIENAKYISRLFATRHKFYKQNKICTEQSNSPPPIRRQPTWSRSSLPRQQPYILPPVHVQCGEHYSETHTSQDSIFHGNEEALYCNSHNSLDLNYLNGTVTNGSVCSVHSVNSLNCSQSFIQASPVSSNLSIPGSDIMRADYIPSHRHSAIIVPSYRPTPDYETVMRQMKRGILHTDSQSQSLRNLNIINTHAYNQPEDLVYSQPEMRERHPYTVPYGPQGVYSNKLVSPSDQRNPKNNVVPSKPGASAISHTVSTPELANMQLQGSHNYSTAHMLKNYLFRPPPPYPRPRPATSTPDLASHRHKYVSGSSPDLVTRKVQLSVKTFQEDSSPVVHQSLQEVSEPLTATKHHGTVNKRHSLEVMNSMVRGMEAMTLKSLHLPMARRNTLREQGPPEEGSGSHEVPQLPQYHHKKTFSDATMLIHSSESEEEEEEAPESVPQIPMLREKMEYSAQLQAALARIPNKPPPEYPGPRKSVSNGALRQDQASLPPAMARARVLRHGPAKAISMSRTDPPAVNGASLGPSISEPDLTSVKERVKKEPVKERPVSEMFSLEDSIIEREMMIRNLEKQKMAGLEAQKRPLMLAALNGLSVARVSGREENRVDATRVPMDERFRTLKKKLEEGMVFTEYEQIPKKKANGIFSTAALPENAERSRIREVVPYEENRVELIPTKENNTGYINASHIKVVVGGAEWHYIATQGPLPHTCHDFWQMVWEQGVNVIAMVTAEEEGGRTKSHRYWPKLGSKHSSATYGKFKVTTKFRTDSVCYATTGLKVKHLLSGQERTVWHLQYTDWPDHGCPEDVQGFLSYLEEIQSVRRHTNSMLEGTKNRHPPIVVHCSAGVGRTGVLILSELMIYCLEHNEKVEVPMMLRLLREQRMFMIQTIAQYKFVYQVLIQFLQNSRLI
Consider B2, for which the binding entry is recorded as “binds”.

B3: pRB, endogenous in HEK293 (protein, UniProt P06400 1-928)
chain: MPPKTPRKTAATAAAAAAEPPAPPPPPPPEEDPEQDSGPEDLPLVRLEFEETEEPDFTALCQKLKIPDHVRERAWLTWEKVSSVDGVLGGYIQKKKELWGICIFIAAVDLDEMSFTFTELQKNIEISVHKFFNLLKEIDTSTKVDNAMSRLLKKYDVLFALFSKLERTCELIYLTQPSSSISTEINSALVLKVSWITFLLAKGEVLQMEDDLVISFQLMLCVLDYFIKLSPPMLLKEPYKTAVIPINGSPRTPRRGQNRSARIAKQLENDTRIIEVLCKEHECNIDEVKNVYFKNFIPFMNSLGLVTSNGLPEVENLSKRYEEIYLKNKDLDARLFLDHDKTLQTDSIDSFETQRTPRKSNLDEEVNVIPPHTPVRTVMNTIQQLMMILNSASDQPSENLISYFNNCTVNPKESILKRVKDIGYIFKEKFAKAVGQGCVEIGSQRYKLGVRLYYRVMESMLKSEEERLSIQNFSKLLNDNIFHMSLLACALEVVMATYSRSTSQNLDSGTDLSFPWILNVLNLKAFDFYKVIESFIKAEGNLTREMIKHLERCEHRIMESLAWLSDSPLFDLIKQSKDREGPTDHLESACPLNLPLQNNHTAADMYLSPVRSPKKKGSTTRVNSTANAETQATSAFQTQKPLKSTSLSLFYKKVYRLAYLRLNTLCERLLSEHPELEHIIWTLFQHTLQNEYELMRDRHLDQIMMCSMYGICKVKNIDLKFKIIVTAYKDLPHAVQETFKRVLIKEEEYDSIIVFYNSVFMQRLKTNILQYASTRPPTLSPIPHIPRSPYKFPSSPLRIPGGNIYISPLKSPYKISEGLPTPTKMTPRSRILVSIGESFGTSEKFQKINQMVCNSDRVLKRSAEGSNPPKPLKKLRFDIEGSDEADGSKHLPGESKFQQKLAEMTSTRTRMQKQKMNDSMDTSNKEEK
With B3, the binding result is on record as “binds”.

The values are drawn from paper PMC9827110.
